# From US6713261B1, “Method for assessing genotoxicity of a compound” (Institut National de la Sante et de la Recherche Medicale, priority 1999, dated 2004)
# For at least one compound, name, drawing or mass did not settle the structure.
# Legend:
# CTLL-2-bcl2 cells = assay: Measurement of apoptosis (Annexin V-FITC, YOPRO-1) in CTLL-2-bcl2 cells; format: cell-based, mouse; details: in parallel to micronucleus test
# CTLL-2 cells = assay: Measurement of apoptosis (Annexin V-FITC, YOPRO-1) in CTLL-2 cells; format: cell-based, mouse; details: in parallel to micronucleus test
compound,measurement,setting,value
C[C@@H]1C[C@H]2[C@@H]3CCC4=CC(=O)C=C[C@]4(C)[C@@]3(F)[C@@H](O)C[C@]2(C)[C@@]1(O)C(=O)CO [dexamethasone],induction of apoptosis (result in words),CTLL-2-bcl2 cells,not possible to observe either an increase in apoptotic cells or an increase in micronucleated cells
same,induction of apoptosis (result in words),CTLL-2 cells,apoptosis only in the CTLL-2 cells
